Assay results: PubChem BioAssay AID248 (DTP/NCI, 2004)
The list does not hold the whole screen: it is rich in T/C values a quarter to a half above the control, in often repeated tests (any T/C) and in doses without a T/C. Further doses and runs are listed elsewhere. T/C gives the treated animals as a percentage of the vehicle group. Some entries give survivors of the animals treated and no T/C: the source holds a T/C of zero for them, seemingly a mark for toxic or unscored doses. Some doses without a T/C left all or most animals alive at the check, yet need not have been tolerated: the source hardly ever lists a survival T/C far under the control, and the zero likely stands for such cases as well. Counts of survivors are from the toxicity check (mostly the fifth day) where no day follows; animals may have died later. Schedules are NCI's codes, taken here to give the interval after Q, in days (D) or hours (H), and the number of doses after X. Where survival is the endpoint, this PubChem deposit counts one and a half times the control or more as active, and values a quarter to a half above the control carry no call in these data; other NCI protocols may use other cut-offs. Some entries were tested several times; their values stand side by side, smallest first. Counts like (3×) stand for listed records that agree. Some T/C values carry the count of animals alive at the toxicity check (mostly the fifth day); where none is given, no animal had died by that day.

Tested on: L1210 leukemia ip in BDF1 mice, survival T/C
Assay: NCI In Vivo Anticancer Drug Screen. Data for tumor model L1210 Leukemia (intraperitoneal) in B6D2F1 (BDF1) mice
Details: T/C endpoint: mean survival time, higher T/C = longer survival
[1] = dose: 200.0 mg/kg/injection, schedule: Q01DX009 (ip), vehicle: Klucel (hydroxypropylcellulose) (HPC)
[2] = dose: 400.0 mg/kg/injection, schedule: Q04DX003 (ip), vehicle: Klucel (hydroxypropylcellulose) (HPC)
[3] = dose: 100.0 mg/kg/injection, schedule: Q04DX003 (ip), vehicle: saline
[4] = dose: 200.0 mg/kg/injection, schedule: Q04DX003 (ip), vehicle: saline
[5] = dose: 400.0 mg/kg/injection, schedule: Q04DX003 (ip), vehicle: saline
[6] = dose: 200.0 mg/kg/injection, schedule: Q04DX003 (ip), vehicle: saline with Tween-80

SMILES: CCCCCCCCCCCCCCC(F)C(=O)O (stereo not drawn)
- survivor count [1]: 6 of 6
- survivor count [2]: 3 of 6

SMILES: Cc1ncc(C(O)c2ccccc2)n1Cc1ccccc1 (stereo not drawn)
- T/C (dose: 100.0 mg/kg/injection, schedule: Q04DX002 (ip), vehicle: Klucel (hydroxypropylcellulose) (HPC)): 91, 96, 105, 128 % of control
- T/C (dose: 200.0 mg/kg/injection, schedule: Q04DX002 (ip), vehicle: Klucel (hydroxypropylcellulose) (HPC)): 96 (2×), 99, 100 % of control
- T/C (dose: 400.0 mg/kg/injection, schedule: Q04DX002 (ip), vehicle: Klucel (hydroxypropylcellulose) (HPC)): 91, 92, 96, 100 % of control

SMILES: CCN(CC)CCCOC(=O)C(c1ccccc1)C1CCCCC1 (stereo not drawn)
- survivor count [3]: 1 of 6
- survivor count [4]: 0 of 6
- survivor count [5]: 0 of 6

SMILES: CN(N=O)C(=O)NCCSc1nc2ncncc2[nH]1
- T/C (dose: 375.0 mg/kg/injection, schedule: Q01DX001 (ip), vehicle: carboxymethylcellulose (CMC)): 128 % of control [5 of 6 alive]

SMILES: Cn1cnc2c(C(F)(F)F)nc(N)nc21
- survivor count [5]: 5 of 6

SMILES: CCOC1OCN(C)CC1(C)C (stereo not drawn)
- T/C (dose: 200.0 mg/kg/injection, schedule: Q01DX009 (ip), vehicle: saline): 126 % of control
- survivor count (dose: 300.0 mg/kg/injection, schedule: Q01DX009 (ip), vehicle: saline sonified): 2 of 6
- survivor count [5]: 1 of 6

SMILES: C[CH2][Pb]([CH2]C)([CH2]C)[O]S(=O)(=O)c1ccc(C)cc1
- survivor count (dose: 6.25 mg/kg/injection, schedule: Q01DX009 (ip), vehicle: saline with Tween-80): 2 of 6
- survivor count (dose: 25.0 mg/kg/injection, schedule: Q04DX002 (ip), vehicle: saline with Tween-80): 0 of 3
- survivor count (dose: 50.0 mg/kg/injection, schedule: Q04DX002 (ip), vehicle: saline with Tween-80): 0 of 3
- survivor count (dose: 100.0 mg/kg/injection, schedule: Q04DX002 (ip), vehicle: saline with Tween-80): 0 of 3
- survivor count (dose: 200.0 mg/kg/injection, schedule: Q04DX002 (ip), vehicle: saline with Tween-80): 0 of 3
- survivor count (dose: 400.0 mg/kg/injection, schedule: Q04DX002 (ip), vehicle: saline with Tween-80): 0 of 3

SMILES: CCCCCCCCCCC(C)c1ccc(S(=O)(=O)O)cc1 (stereo not drawn)
- survivor count (dose: 400.0 mg/kg/injection, schedule: Q01DX001 (ip), vehicle: saline sonified): 3 of 6

SMILES: Cc1nc2ccccc2c(C)c1-c1c(C)nc2ccccc2c1C
- survivor count [3]: 6 of 6
- survivor count [4]: 6 of 6
- survivor count [5]: 6 of 6

SMILES: CC(=O)OCC1OC(n2nnc(CBr)c2CBr)C(OC(C)=O)C(OC(C)=O)C1OC(C)=O (stereo not drawn)
- survivor count (dose: 100.0 mg/kg/injection, schedule: Q01DX005 (ip), vehicle: other): 3 of 6
- survivor count (dose: 200.0 mg/kg/injection, schedule: Q01DX005 (ip), vehicle: other): 0 of 6

SMILES: O=C1c2ccccc2C(=O)N1CN1CCC(CCCC2CCN(CN3C(=O)c4ccccc4C3=O)CC2)CC1
- survivor count [6]: 3 of 3
- survivor count (dose: 400.0 mg/kg/injection, schedule: Q04DX003 (ip), vehicle: saline with Tween-80): 3 of 3

SMILES: Cc1ccccc1N=C(N)N=C(N)N
- survivor count [1]: 0 of 6
- survivor count (dose: 200.0 mg/kg/injection, schedule: Q04DX003 (ip), vehicle: Klucel (hydroxypropylcellulose) (HPC)): 2 of 6
- survivor count (dose: 400.0 mg/kg/injection, schedule: Q01DX009 (ip), vehicle: Klucel (hydroxypropylcellulose) (HPC)): 0 of 6
- survivor count [2]: 0 of 6

SMILES: OC1CCCC/C1=C/C=C/c1ccccc1 (stereo not drawn)
- survivor count [6]: 6 of 6

SMILES: CCCCCCCCCCCCCCCCS(=O)(=O)N/N=C/c1ccccc1O
- survivor count (dose: 400.0 mg/kg/injection, schedule: Q01DX001 (ip), vehicle: carboxymethylcellulose (CMC)): 2 of 4
